One substance from publication PMC8366451 can be followed below.

Chains of the proteins cited; added tags and fusions are not shown.
UniProt O75832: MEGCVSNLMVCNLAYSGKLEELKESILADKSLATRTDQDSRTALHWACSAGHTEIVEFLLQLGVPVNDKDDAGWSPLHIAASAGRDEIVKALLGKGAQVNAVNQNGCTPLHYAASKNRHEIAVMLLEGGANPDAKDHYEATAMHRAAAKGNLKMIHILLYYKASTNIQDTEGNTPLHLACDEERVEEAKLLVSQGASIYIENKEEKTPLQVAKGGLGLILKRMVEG
UniProt P08151: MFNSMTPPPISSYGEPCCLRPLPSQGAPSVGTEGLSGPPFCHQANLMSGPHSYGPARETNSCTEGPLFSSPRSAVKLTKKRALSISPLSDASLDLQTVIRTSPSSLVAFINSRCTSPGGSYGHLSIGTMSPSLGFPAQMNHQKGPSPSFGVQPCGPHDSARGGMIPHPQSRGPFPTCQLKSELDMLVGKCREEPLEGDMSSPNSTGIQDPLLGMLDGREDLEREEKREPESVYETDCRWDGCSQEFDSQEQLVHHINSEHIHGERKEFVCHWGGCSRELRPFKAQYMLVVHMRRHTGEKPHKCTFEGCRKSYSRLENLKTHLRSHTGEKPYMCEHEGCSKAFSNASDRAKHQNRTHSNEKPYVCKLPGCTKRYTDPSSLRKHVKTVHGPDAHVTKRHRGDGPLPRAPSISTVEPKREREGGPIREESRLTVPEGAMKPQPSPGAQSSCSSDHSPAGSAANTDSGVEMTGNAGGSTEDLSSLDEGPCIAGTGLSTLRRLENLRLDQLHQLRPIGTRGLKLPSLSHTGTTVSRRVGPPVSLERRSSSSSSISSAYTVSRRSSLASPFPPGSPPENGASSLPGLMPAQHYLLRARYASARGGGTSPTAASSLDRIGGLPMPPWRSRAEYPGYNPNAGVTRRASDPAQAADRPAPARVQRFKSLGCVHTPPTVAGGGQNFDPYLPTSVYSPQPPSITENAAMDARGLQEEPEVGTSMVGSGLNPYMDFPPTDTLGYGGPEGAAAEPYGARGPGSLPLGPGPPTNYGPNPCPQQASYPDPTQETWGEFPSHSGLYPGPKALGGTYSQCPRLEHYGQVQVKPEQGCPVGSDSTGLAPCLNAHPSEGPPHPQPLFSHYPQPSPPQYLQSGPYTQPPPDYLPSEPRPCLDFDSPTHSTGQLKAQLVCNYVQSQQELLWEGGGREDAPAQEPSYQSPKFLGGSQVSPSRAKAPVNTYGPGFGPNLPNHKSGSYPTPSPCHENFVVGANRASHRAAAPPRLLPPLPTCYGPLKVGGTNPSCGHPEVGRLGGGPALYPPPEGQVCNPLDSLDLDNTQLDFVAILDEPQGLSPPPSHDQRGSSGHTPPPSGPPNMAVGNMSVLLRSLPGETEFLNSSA

No constants are given. Whether binding was seen depends on the method and setting. Binding seen in cells or lysates may run through a third protein. Some results given as binding are weak or reduced against the parent protein; the word gives no strength.

For the experiment, the target named is gankyrin (human) (UniProt O75832). Briefly: co-IP; U2OS and MG63 cell lysates (25 mmol/L Tris-HCl, 150 mmol/L NaCl, 2 mmol/L EDTA, 0.1% Nonidet P-40) incubated with anti-gankyrin antibody and Protein A/G magnetic beads overnight at 4°C; Western blot with anti-Gli1; IgG as negative control.

For the substance Gli1 (from UniProt P08151 1-1106), the binding result is recorded as “binds”.
